Results deposited as PubChem BioAssay AID652259 (Drosophila RNAi Screening Center, 2013).

Screen: 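Genome-wide hunt for genes that control Wingless pathway activity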 (primary screen)
Cell system: Drosophila clone 8 imaginal disc epithelial cells
Knock-down reagent: long dsRNA against Drosophila genes
Challenge: pathway stimulated by co-transfected Wingless expression plasmid
Detection: 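Dual luciferase reads per well after Wingless plasmid stimulation: reporter firefly light and Renilla control light; activity is firefly divided by Renilla, a ratio not deposited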
Direction: firefly reporter light: higher = more Wg reporter light, before normalisation; Renilla control light: higher = more transfected or surviving cells
Active means: 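Strong candidates differ from their plate mean by at least two out of four per-plate statistical tests; weak candidates meet just one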
Meaning of the calls: active = candidate regulator (raises or lowers reporter); inactive = not a candidate
In all, the deposit lists about 22,000 reagents; this is a random part of those that have a named target and a result. In the full data, 233 (1.1%) are marked active. 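Light values are raw, unnormalised plate reads; the ratio scores behind the reporter calls were not deposited.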 A plus sign joins genes that one reagent is predicted to hit. Not given: the amount of reagent, the time to read-out, the dose of the treatment.

| target gene | DRSC id | reporter change call, replicate 1 | firefly reporter light, replicate 1 | firefly reporter light, replicate 2 | Renilla control light, replicate 1 | Renilla control light, replicate 2 | outcome |
| --- | --- | --- | --- | --- | --- | --- | --- |
| Cyp4p1 (Cytochrome P450 4p1) | DRSC07372 | – | 4170 | 10773 | 1020 | 4045 | inactive |
| AP-1mu (Adaptor Protein complex 1, mu subunit) | DRSC14089 | – | 6426 | – | 1896 | – | inactive |
| sip2 (septin interacting protein 2) | DRSC03154 | – | 2908 | 7472 | 1035 | 1719 | inactive |
| CG32772 | DRSC18052 | Wg reporter activity raised | 28039 | – | 13313 | – | active |
| CG32772 | DRSC18406 | – | 4115 | 6608 | 1744 | 1682 | inactive |
| CG32772 | DRSC22349 | – | 6.19e5 | 6.58e5 | 2.39e5 | 2.34e5 | inactive |
| Lpin (Lipin) | DRSC07241 | – | 4128 | – | 1395 | – | inactive |
| CG14644 | DRSC12230 | – | 13212 | – | 5818 | – | inactive |
| FucTB (alpha1,3-fucosyltransferase B) | DRSC02745 | – | 3248 | 5088 | 982 | 2802 | inactive |
| CG3323 | DRSC18303 | – | 20752 | – | 7696 | – | inactive |
| Cdc14 (Cell division cycle 14) | DRSC03013 | – | 2944 | 8401 | 848 | 3412 | inactive |
| CG6985 | DRSC16164 | – | 4915 | 8539 | 2087 | 2851 | inactive |
| CG42397 | DRSC09147 | – | 3033 | – | 1545 | – | inactive |
| Gem4b + Gem4c | DRSC17294 | – | 2051 | – | 1008 | – | inactive |
| CG4374 | DRSC15570 | – | 24621 | – | 20544 | – | inactive |
| Grl58a (Gustatory receptor-like 58a) | DRSC04145 | – | 3111 | 6496 | 896 | 2160 | inactive |
| Ssdp (Sequence-specific single-stranded DNA-binding protein) | DRSC16211 | – | 6691 | – | 1520 | – | inactive |
| CG30148 | DRSC06391 | – | 4032 | – | 961 | – | inactive |
| Pgant2 (Polypeptide N-Acetylgalactosaminyltransferase 2) | DRSC00587 | – | 3848 | 9997 | 1648 | 4219 | inactive |
| Spn28F (Serpin 28F) | DRSC03615 | – | 2454 | 6613 | 992 | 3091 | inactive |
| Atu (Another transcription unit) | DRSC12123 | – | 5353 | – | 2645 | – | inactive |
| p38c (p38c MAP kinase) | DRSC22939 | – | 5.92e5 | 6.34e5 | 2.63e5 | 2.02e5 | inactive |
| CG4360 | DRSC15566 | – | 18082 | – | 4161 | – | inactive |
| ppk16 (pickpocket 16) | DRSC02736 | – | 1399 | 6315 | 528 | 2684 | inactive |
| CG13551 | DRSC21847 | – | 4.59e5 | 4.36e5 | 2.04e5 | 2.25e5 | inactive |
| ICA69 (Islet cell autoantigen 69 kDa) | DRSC11621 | – | 5600 | – | 2438 | – | inactive |
| Traf-like (TNF-receptor-associated factor-like) | DRSC19894 | – | 3121 | 7473 | 1307 | 2428 | inactive |
| CG32199 | DRSC09990 | – | 6422 | – | 2373 | – | inactive |
| CG7695 | DRSC16289 | – | 18919 | – | 4009 | – | inactive |
| Gbp3 (Growth-blocking peptide 3) | DRSC15206 | – | 15325 | – | 13192 | – | inactive |
| CG18420 | DRSC01954 | – | 1718 | 6532 | 1157 | 3253 | inactive |
| ed (echinoid) | DRSC00350 | – | 10160 | – | 4320 | – | inactive |
| ed (echinoid) | DRSC00438 | – | 2993 | 7351 | 1440 | 2790 | inactive |
| ed (echinoid) | DRSC00439 | – | 3798 | 10224 | 1444 | 3285 | inactive |
| ed (echinoid) | DRSC00478 | – | 3061 | 9233 | 1312 | 3140 | inactive |
| CG8910 | DRSC07414 | – | 4186 | – | 1664 | – | inactive |
| Dbp45A (DEAD box protein 45A) | DRSC07395 | – | 9272 | – | 2785 | – | inactive |
| CG14102 | DRSC10103 | – | 6861 | – | 2497 | – | inactive |
| C3G (C3G guanyl-nucleotide exchange factor) | DRSC17745 | – | 20663 | – | 11153 | – | inactive |
| C3G (C3G guanyl-nucleotide exchange factor) | DRSC17929 | – | 21475 | – | 13304 | – | inactive |
| C3G (C3G guanyl-nucleotide exchange factor) | DRSC22329 | – | 7.08e5 | 6.86e5 | 3.54e5 | 3.34e5 | inactive |
| CG14743 | DRSC06479 | – | 1857 | 5153 | 778 | 2487 | inactive |
| Noc1 (Nucleolar complex protein 1) | DRSC10921 | – | 5072 | – | 2598 | – | inactive |
| CG33158 | DRSC09708 | – | 4556 | – | 1511 | – | inactive |
| CG33158 | DRSC09709 | – | 8743 | – | 4316 | – | inactive |
| CG33158 | DRSC10438 | – | 9621 | – | 2915 | – | inactive |
| CG14227 | DRSC19584 | – | 4224 | – | 1369 | – | inactive |
| Bdbt (Bride of doubletime) | DRSC15218 | – | 12118 | – | 4096 | – | inactive |
| UQCR-14L (Ubiquinol-cytochrome c reductase 14 kDa subunit-like) | DRSC15288 | – | 10940 | – | 4933 | – | inactive |
| UQCR-14L (Ubiquinol-cytochrome c reductase 14 kDa subunit-like) | DRSC22425 | – | 7.67e5 | 7.36e5 | 2.91e5 | 2.92e5 | inactive |

Active calls, among the entries above:
| target gene | DRSC id | reporter change call, replicate 1 | firefly reporter light, replicate 1 | firefly reporter light, replicate 2 | Renilla control light, replicate 1 | Renilla control light, replicate 2 | outcome |
| --- | --- | --- | --- | --- | --- | --- | --- |
| CG32772 | DRSC18052 | Wg reporter activity raised | 28039 | – | 13313 | – | active |
